# The supplement of paper PMC8728848
# The list shows a part of the results.
# B1: LysMD3 (Homo sapiens), Q7Z3D4 (protein)
# chain: MAGRHQNRSFPLPGVQSSGQVHAFGNCSDSDILEEDAEVYELRSRGKEKVRRSTSRDRLDDIIVLTKDIQEGDTLNAIALQYCCTVADIKRVNNLISDQDFFALRSIKIPVKKFSSLTETLCPPKGRQTSRHSSVQYSSEQQEILPANDSLAYSDSAGSFLKEVDRDIEQIVKCTDNKRENLNEVVSALTAQQMRFEPDNKNTQRKDPYYGADWGIG
# How the values were obtained:
# Experiment in all cases: glycan array binding signal (z-score within array); higher = stronger binding
# Details in all cases: glycan notation: IUPAC condensed, linker removed
# [1] = molecular target: Gal(b1-4)GlcNAc(b1-3)Gal(b1-4)GlcNAc(b1-3)Gal(b1-4)GlcNAc(b1-3)Gal(b1-4)GlcNAc(b1-2)Man(a1-3)[Gal(b1-4)GlcNAc(b1-3)Gal(b1-4)GlcNAc(b1-3)Gal(b1-4)GlcNAc(b1-3)Gal(b1-4)GlcNAc(b1-2)Man(a1-6)]Man(b1-4)GlcNAc(b1-4)GlcNAc
# Summary of the method: (§1)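 Negative Z-scores can be read as non-binding. The Z-score is calculated within each array and then averaged across arrays of one protein sequence at different concentrations or buffers and across linkers. Arrays, 3228 in all, were curated from the Consortium for Functional Glycomics database and kept only where the protein sequence was available.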
# [2] = molecular target: Gal(b1-4)GlcNAc(b1-3)Gal(b1-4)GlcNAc(b1-3)Gal(b1-4)GlcNAc(b1-3)Gal(b1-4)GlcNAc(b1-2)Man(a1-3)[Gal(b1-4)GlcNAc(b1-3)Gal(b1-4)GlcNAc(b1-3)Gal(b1-4)GlcNAc(b1-3)Gal(b1-4)GlcNAc(b1-2)Man(a1-6)]Man(b1-4)GlcNAc(b1-4)[Fuc(a1-6)]GlcNAc
# Summary of the method: as §1
# [3] = molecular target: Gal(b1-4)GlcNAc(b1-3)Gal(b1-4)GlcNAc(b1-3)Gal(b1-4)GlcNAc(b1-3)Gal(b1-4)GlcNAc(b1-2)[Gal(b1-4)GlcNAc(b1-3)Gal(b1-4)GlcNAc(b1-3)Gal(b1-4)GlcNAc(b1-3)Gal(b1-4)GlcNAc(b1-6)]Man(a1-6)[Gal(b1-4)GlcNAc(b1-3)Gal(b1-4)GlcNAc(b1-3)Gal(b1-4)GlcNAc(b1-3)Gal(b1-4)GlcNAc(b1-2)Man(a1-3)]Man(b1-4)GlcNAc(b1-4)[Fuc(a1-6)]GlcNAc
# Summary of the method: as §1
# [4] = molecular target: Gal(b1-4)GlcNAc(b1-3)Gal(b1-4)GlcNAc(b1-3)Gal(b1-4)GlcNAc(b1-3)Gal(b1-4)GlcNAc(b1-3)Gal(b1-4)GlcNAc(b1-2)Man(a1-3)[Gal(b1-4)GlcNAc(b1-3)Gal(b1-4)GlcNAc(b1-3)Gal(b1-4)GlcNAc(b1-3)Gal(b1-4)GlcNAc(b1-3)Gal(b1-4)GlcNAc(b1-2)Man(a1-6)]Man(b1-4)GlcNAc(b1-4)GlcNAc
# Summary of the method: as §1
# [5] = molecular target: Gal(b1-4)GlcNAc(b1-3)Gal(b1-4)GlcNAc(b1-3)Gal(b1-4)GlcNAc(b1-3)Gal(b1-4)GlcNAc(b1-3)Gal(b1-4)GlcNAc(b1-2)Man(a1-3)[Gal(b1-4)GlcNAc(b1-3)Gal(b1-4)GlcNAc(b1-3)Gal(b1-4)GlcNAc(b1-3)Gal(b1-4)GlcNAc(b1-3)Gal(b1-4)GlcNAc(b1-2)Man(a1-6)]Man(b1-4)GlcNAc(b1-4)[Fuc(a1-6)]GlcNAc
# Summary of the method: as §1
# [6] = molecular target: Gal(b1-4)GlcNAc(b1-3)Gal(b1-4)GlcNAc(b1-3)Gal(b1-4)GlcNAc(b1-3)Gal(b1-4)GlcNAc(b1-3)Gal(b1-4)GlcNAc(b1-2)[Gal(b1-4)GlcNAc(b1-3)Gal(b1-4)GlcNAc(b1-3)Gal(b1-4)GlcNAc(b1-3)Gal(b1-4)GlcNAc(b1-3)Gal(b1-4)GlcNAc(b1-6)]Man(a1-6)[Gal(b1-4)GlcNAc(b1-3)Gal(b1-4)GlcNAc(b1-3)Gal(b1-4)GlcNAc(b1-3)Gal(b1-4)GlcNAc(b1-3)Gal(b1-4)GlcNAc(b1-2)Man(a1-3)]Man(b1-4)GlcNAc(b1-4)[Fuc(a1-6)]GlcNAc
# Summary of the method: as §1
# [7] = molecular target: Gal(b1-4)GlcNAc(b1-3)Gal(b1-4)GlcNAc(b1-3)Gal(b1-4)GlcNAc(b1-3)Gal(b1-4)GlcNAc(b1-3)Gal(b1-4)GlcNAc(b1-3)Gal(b1-4)GlcNAc(b1-2)Man(a1-3)[Gal(b1-4)GlcNAc(b1-3)Gal(b1-4)GlcNAc(b1-3)Gal(b1-4)GlcNAc(b1-3)Gal(b1-4)GlcNAc(b1-3)Gal(b1-4)GlcNAc(b1-3)Gal(b1-4)GlcNAc(b1-2)Man(a1-6)]Man(b1-4)GlcNAc(b1-4)GlcNAc
# Summary of the method: as §1
# [8] = molecular target: Gal(b1-4)GlcNAc(b1-3)Gal(b1-4)GlcNAc(b1-3)GalNAc
# Summary of the method: as §1
# [9] = molecular target: Gal(b1-4)GlcNAc(b1-3)Gal(b1-4)GlcNAc(b1-3)[Gal(b1-4)GlcNAc(b1-3)Gal(b1-4)GlcNAc(b1-6)]GalNAc
# Summary of the method: as §1
# [10] = molecular target: Gal(b1-4)GlcNAc(b1-3)Gal(b1-4)GlcNAc(b1-6)[Gal(b1-3)]GalNAc
# Summary of the method: as §1
# [11] = molecular target: Gal(b1-4)GlcNAc(b1-3)Gal(b1-4)[Fuc(a1-3)]GlcNAc(b1-3)Gal(b1-4)[Fuc(a1-3)]GlcNAc
# Summary of the method: as §1
# [12] = molecular target: Gal(b1-4)GlcNAc(b1-3)GalNAc
# Summary of the method: as §1
# [13] = molecular target: Gal(b1-4)GlcNAc(b1-3)[Fuc(a1-3)GlcNAc(b1-6)]Gal(b1-4)Glc
# Summary of the method: as §1
# [14] = molecular target: Gal(b1-4)GlcNAc(b1-3)[Gal(b1-4)GlcNAc(b1-6)]Gal(b1-4)GlcNAc
# Summary of the method: as §1
# [15] = molecular target: Gal(b1-4)GlcNAc(b1-3)[GlcNAc(b1-6)]Gal(b1-4)GlcNAc
# Summary of the method: as §1
# [16] = molecular target: Gal(b1-4)GlcNAc(b1-6)Gal(b1-4)GlcNAc
# Summary of the method: as §1
# [17] = molecular target: Gal(b1-4)GlcNAc(b1-6)GalNAc
# Summary of the method: as §1
# [18] = molecular target: Gal(b1-4)GlcNAc(b1-6)[Gal(b1-3)]GalNAc
# Summary of the method: as §1
# [19] = molecular target: Gal(b1-4)GlcNAc(b1-6)[Gal(b1-4)GlcNAc(b1-3)]GalNAc
# Summary of the method: as §1
# Gal(b1-4)GlcNAc6P = molecular target: Gal(b1-4)GlcNAc6P
# Summary of the method: as §1
# Gal(b1-6)Gal = molecular target: Gal(b1-6)Gal
# Summary of the method: as §1
# Gal3S(b1-3)GalNAc = molecular target: Gal3S(b1-3)GalNAc
# Summary of the method: as §1
# Gal3S(b1-3)GlcNAc = molecular target: Gal3S(b1-3)GlcNAc
# Summary of the method: as §1
binder,measurement,setting,value
B1,glycan array binding signal (z-score),[1],1.02
same,glycan array binding signal (z-score),[2],0.94
same,glycan array binding signal (z-score),[3],-0.101
same,glycan array binding signal (z-score),[4],0.305
same,glycan array binding signal (z-score),[5],0.267
same,glycan array binding signal (z-score),[6],0.022
same,glycan array binding signal (z-score),[7],-0.094
same,glycan array binding signal (z-score),[8],-0.073
same,glycan array binding signal (z-score),[9],-0.389
same,glycan array binding signal (z-score),[10],-0.539
same,glycan array binding signal (z-score),[11],0.119
same,glycan array binding signal (z-score),[12],0.375
same,glycan array binding signal (z-score),[13],0.442
same,glycan array binding signal (z-score),[14],-0.668
same,glycan array binding signal (z-score),[15],-0.966
same,glycan array binding signal (z-score),[16],1.56
same,glycan array binding signal (z-score),[17],0.988
same,glycan array binding signal (z-score),[18],-0.769
same,glycan array binding signal (z-score),[19],0.69
same,glycan array binding signal (z-score),Gal(b1-4)GlcNAc6P,-0.724
same,glycan array binding signal (z-score),Gal(b1-6)Gal,-0.368
same,glycan array binding signal (z-score),Gal3S(b1-3)GalNAc,-0.094
same,glycan array binding signal (z-score),Gal3S(b1-3)GlcNAc,0.323

# A different layout for some results above.
binder	measurement	setting	value
B1	glycan array binding signal (z-score)	[17]	0.988
same	glycan array binding signal (z-score)	[18]	-0.769
